Taken from: PubChem BioAssay AID1259425 (University of Nebraska Medical Center, 2018)
In all, the deposit lists about 14,000 reagents; below is a random part of them. Not all columns of the deposit are shown. The record does not give: the time to read-out.

- Purpose: 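Compare each knockdown with KSR1 silencing using changes in marker transcripts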 (primary screen)
- Cell system: HCT116 human colon cancer cells
- Knock-down reagent: siRNA pool against human genes, 50 nM siRNA
- Measurement: 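mRNA of six signature genes measured together by branched-DNA assay after 50 nM siRNA pool, blank removed, divided by geometric mean of two housekeeping genes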
- Scale: BNIP3L mRNA: higher = more BNIP3L transcript after knockdown; NDRG1 mRNA: higher = more NDRG1 transcript after knockdown

With knock-down of ACVR1B (activin A receptor type 1B), the record shows BNIP3L mRNA, set 1 = 0.116; NDRG1 mRNA, set 1 = 0.233. With knock-down of ADGRL3 (adhesion G protein-coupled receptor L3), the record shows BNIP3L mRNA, set 1 = 0.0975; NDRG1 mRNA, set 1 = 0.115. Against LPGAT1 (lysophosphatidylglycerol acyltransferase 1), the values are BNIP3L mRNA, set 1 = 0.0392; NDRG1 mRNA, set 1 = 0.325. Silencing of MOV10 (Mov10 RNA helicase) gave: BNIP3L mRNA, set 1 = 0.0915; NDRG1 mRNA, set 1 = 0.228. For ZNF175 (zinc finger protein 175) the deposit lists BNIP3L mRNA, set 1 = 0.127; NDRG1 mRNA, set 1 = 0.191. Silencing of HSPA4L (heat shock protein family A (Hsp70) member 4 like) gave: BNIP3L mRNA, set 1 = 0.154; NDRG1 mRNA, set 1 = 0.145.

With knock-down of RHOH (ras homolog family member H) the results were BNIP3L mRNA, set 1 = 0.0752; NDRG1 mRNA, set 1 = 0.0661. Against METTL22 (methyltransferase 22, Kin17 lysine), the entry reads BNIP3L mRNA, set 1 = 0.118; NDRG1 mRNA, set 1 = 0.248. NLRP2 (NLR family pyrin domain containing 2) gave BNIP3L mRNA, set 1 = 0.0699; NDRG1 mRNA, set 1 = 0.0413. MPC2 showed BNIP3L mRNA, set 1 = 0.0855; NDRG1 mRNA, set 1 = 0.406. For C1QA (complement C1q A chain), the entry reads BNIP3L mRNA, set 1 = 0.191; NDRG1 mRNA, set 1 = 0.254. After knock-down of HOXD4 (homeobox D4), the screen gave BNIP3L mRNA, set 1 = 0.123; NDRG1 mRNA, set 1 = 0.156.

Knock-down of MAG (myelin associated glycoprotein) came out at: BNIP3L mRNA, set 1 = 0.218; NDRG1 mRNA, set 1 = 0.324. Against ENPP4 (ectonucleotide pyrophosphatase/phosphodiesterase 4), the values are BNIP3L mRNA, set 1 = 0.106; NDRG1 mRNA, set 1 = 0.355. TBCA (tubulin folding cofactor A) gave BNIP3L mRNA, set 1 = 0.0874; NDRG1 mRNA, set 1 = 0.0806. EYA3 (EYA transcriptional coactivator and phosphatase 3) scored BNIP3L mRNA, set 1 = 0.0706; NDRG1 mRNA, set 1 = 0.153. For REG3A (regenerating family member 3 alpha) the deposit lists BNIP3L mRNA, set 1 = 0.14; NDRG1 mRNA, set 1 = 0.162. For VPS28 (VPS28 subunit of ESCRT-I), the values are BNIP3L mRNA, set 1 = 0.0842; NDRG1 mRNA, set 1 = 0.273.

For AFG2B (AAA ATPase AFG2B), the values are BNIP3L mRNA, set 1 = 0.245; NDRG1 mRNA, set 1 = 0.716. For ZNF562 (zinc finger protein 562) the deposit lists BNIP3L mRNA, set 1 = 0.117; NDRG1 mRNA, set 1 = 0.191. SRGN (serglycin) scored BNIP3L mRNA, set 1 = 0.506; NDRG1 mRNA, set 1 = 0.104. FUT5 (fucosyltransferase 5) showed BNIP3L mRNA, set 1 = 0.0794; NDRG1 mRNA, set 1 = 0.146. USP32P2 (ubiquitin specific peptidase 32 pseudogene 2) gave BNIP3L mRNA, set 1 = 0.0605; NDRG1 mRNA, set 1 = 0.0958. Against RASL10A (RAS like family 10 member A) the deposit lists BNIP3L mRNA, set 1 = 0.12; NDRG1 mRNA, set 1 = 0.417.

ACTC1 (actin alpha cardiac muscle 1) scored BNIP3L mRNA, set 1 = 0.118; NDRG1 mRNA, set 1 = 0.18. Knock-down of CDX1 (caudal type homeobox 1) gave: BNIP3L mRNA, set 1 = 0.129; NDRG1 mRNA, set 1 = 0.353. CCKBR (cholecystokinin B receptor) gave BNIP3L mRNA, set 1 = 0.0561; NDRG1 mRNA, set 1 = 0.0932. With knock-down of VPS53 (VPS53 subunit of GARP complex), the record shows BNIP3L mRNA, set 1 = 0.149; NDRG1 mRNA, set 1 = 0.297. DGKH (diacylglycerol kinase eta) scored BNIP3L mRNA, set 1 = 0.0582; NDRG1 mRNA, set 1 = 0.0823. With knock-down of NHP2 (NHP2 ribonucleoprotein), the screen gave BNIP3L mRNA, set 1 = 1.26; NDRG1 mRNA, set 1 = 3.25.

After knock-down of WNT16 (Wnt family member 16), the record shows BNIP3L mRNA, set 1 = 0.0451; NDRG1 mRNA, set 1 = 0.105. Depletion of ZNF382 (zinc finger protein 382) gave: BNIP3L mRNA, set 1 = 0.169; NDRG1 mRNA, set 1 = 0.195. For CTBS (chitobiase) the deposit lists BNIP3L mRNA, set 1 = 0.161; NDRG1 mRNA, set 1 = 0.498. Against RSL1D1 (ribosomal L1 domain containing 1), the entry reads BNIP3L mRNA, set 1 = 0.138; NDRG1 mRNA, set 1 = 0.503. With knock-down of SND1-IT1 (SND1 intronic transcript 1), the record shows BNIP3L mRNA, set 1 = 0.247; NDRG1 mRNA, set 1 = 0.093. Knock-down of STBD1 (starch binding domain 1) resulted in: BNIP3L mRNA, set 1 = 0.142; NDRG1 mRNA, set 1 = 0.187.

4 entries already listed, ordered by “BNIP3L mRNA, set 1”, lowest first:
NLRP2 (NLR family pyrin domain containing 2): BNIP3L mRNA, set 1 = 0.0699; NDRG1 mRNA, set 1 = 0.0413
MPC2: BNIP3L mRNA, set 1 = 0.0855; NDRG1 mRNA, set 1 = 0.406
METTL22 (methyltransferase 22, Kin17 lysine): BNIP3L mRNA, set 1 = 0.118; NDRG1 mRNA, set 1 = 0.248
C1QA (complement C1q A chain): BNIP3L mRNA, set 1 = 0.191; NDRG1 mRNA, set 1 = 0.254
